Reference: article PMC4686221
Results are given in words; binding and its absence hold for the method and conditions named. For some of these results: In cells and extracts the contact can be indirect. Some results given as binding are weak or reduced against the parent protein; the word gives no strength.

Sequences of proteins named here, by UniProt entry; tags and fusion partners are left off. A change or cut given only in a name is not applied to a line headed by its entry. A line that says so, or that is headed by a name, gives the form on record, which may keep a tag or linker. Residues count along the entry.
UniProt P48432: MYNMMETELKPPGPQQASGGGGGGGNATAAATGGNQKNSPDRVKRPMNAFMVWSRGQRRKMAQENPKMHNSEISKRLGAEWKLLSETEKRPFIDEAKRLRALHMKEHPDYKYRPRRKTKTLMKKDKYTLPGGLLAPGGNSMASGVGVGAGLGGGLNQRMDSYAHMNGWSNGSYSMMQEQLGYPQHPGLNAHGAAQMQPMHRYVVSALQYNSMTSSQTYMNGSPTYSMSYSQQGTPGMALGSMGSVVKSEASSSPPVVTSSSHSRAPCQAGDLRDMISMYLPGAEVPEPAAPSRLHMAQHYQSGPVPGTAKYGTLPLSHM
FLAG-HA-tagged Sox2 (1–123): residues 1-123 of P48432
UniProt P20263: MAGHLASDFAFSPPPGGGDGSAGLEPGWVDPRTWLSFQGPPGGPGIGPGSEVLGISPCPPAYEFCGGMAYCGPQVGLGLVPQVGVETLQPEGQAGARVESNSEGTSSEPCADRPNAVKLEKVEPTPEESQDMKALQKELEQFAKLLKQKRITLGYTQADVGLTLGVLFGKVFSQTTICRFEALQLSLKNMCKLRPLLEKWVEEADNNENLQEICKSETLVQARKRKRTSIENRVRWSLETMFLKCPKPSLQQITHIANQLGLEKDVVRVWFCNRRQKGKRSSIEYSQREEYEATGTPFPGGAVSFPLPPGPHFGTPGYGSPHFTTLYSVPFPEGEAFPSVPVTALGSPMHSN
UniProt Q60793: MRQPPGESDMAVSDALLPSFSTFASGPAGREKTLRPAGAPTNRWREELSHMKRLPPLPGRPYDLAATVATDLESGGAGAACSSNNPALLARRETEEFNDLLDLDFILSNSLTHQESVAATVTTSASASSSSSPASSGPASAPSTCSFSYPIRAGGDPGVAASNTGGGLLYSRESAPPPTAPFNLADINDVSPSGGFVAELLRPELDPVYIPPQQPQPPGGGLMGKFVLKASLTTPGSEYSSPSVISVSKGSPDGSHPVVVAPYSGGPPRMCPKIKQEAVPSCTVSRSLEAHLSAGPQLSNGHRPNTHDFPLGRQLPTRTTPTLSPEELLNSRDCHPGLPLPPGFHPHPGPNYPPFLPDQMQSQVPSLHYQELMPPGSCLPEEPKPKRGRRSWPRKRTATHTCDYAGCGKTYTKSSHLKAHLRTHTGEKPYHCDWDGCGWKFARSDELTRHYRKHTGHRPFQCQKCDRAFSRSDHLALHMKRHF
UniProt P01108: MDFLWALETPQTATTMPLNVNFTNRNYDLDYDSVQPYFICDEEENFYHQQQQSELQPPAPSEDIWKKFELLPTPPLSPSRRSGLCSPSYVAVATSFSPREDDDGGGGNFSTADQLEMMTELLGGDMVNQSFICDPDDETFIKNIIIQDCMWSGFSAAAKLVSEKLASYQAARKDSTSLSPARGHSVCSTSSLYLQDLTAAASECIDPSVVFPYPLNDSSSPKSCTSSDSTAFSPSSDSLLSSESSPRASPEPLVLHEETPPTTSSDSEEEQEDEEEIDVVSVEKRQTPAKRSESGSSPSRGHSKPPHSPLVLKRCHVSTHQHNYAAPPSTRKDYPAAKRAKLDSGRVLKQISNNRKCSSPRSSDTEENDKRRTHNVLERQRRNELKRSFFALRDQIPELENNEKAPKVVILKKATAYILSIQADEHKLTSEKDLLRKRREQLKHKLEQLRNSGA
UniProt Q9UBL3: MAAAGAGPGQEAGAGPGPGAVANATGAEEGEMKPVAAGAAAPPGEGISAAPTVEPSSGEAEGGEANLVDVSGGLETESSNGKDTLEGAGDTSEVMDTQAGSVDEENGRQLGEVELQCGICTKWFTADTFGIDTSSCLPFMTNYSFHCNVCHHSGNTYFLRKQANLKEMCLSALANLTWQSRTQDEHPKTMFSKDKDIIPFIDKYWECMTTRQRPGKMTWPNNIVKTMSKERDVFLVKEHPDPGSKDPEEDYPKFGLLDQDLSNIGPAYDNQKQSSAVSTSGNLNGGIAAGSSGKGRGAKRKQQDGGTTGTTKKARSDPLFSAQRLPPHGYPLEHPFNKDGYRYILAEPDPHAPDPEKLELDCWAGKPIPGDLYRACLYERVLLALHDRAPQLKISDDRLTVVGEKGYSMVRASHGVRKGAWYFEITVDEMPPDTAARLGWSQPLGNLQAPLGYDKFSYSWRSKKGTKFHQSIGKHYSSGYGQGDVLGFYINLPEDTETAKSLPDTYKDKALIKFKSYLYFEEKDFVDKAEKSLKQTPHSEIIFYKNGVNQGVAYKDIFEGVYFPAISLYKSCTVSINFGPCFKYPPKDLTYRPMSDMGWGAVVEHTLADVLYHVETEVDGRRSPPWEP
UniProt Q91X20: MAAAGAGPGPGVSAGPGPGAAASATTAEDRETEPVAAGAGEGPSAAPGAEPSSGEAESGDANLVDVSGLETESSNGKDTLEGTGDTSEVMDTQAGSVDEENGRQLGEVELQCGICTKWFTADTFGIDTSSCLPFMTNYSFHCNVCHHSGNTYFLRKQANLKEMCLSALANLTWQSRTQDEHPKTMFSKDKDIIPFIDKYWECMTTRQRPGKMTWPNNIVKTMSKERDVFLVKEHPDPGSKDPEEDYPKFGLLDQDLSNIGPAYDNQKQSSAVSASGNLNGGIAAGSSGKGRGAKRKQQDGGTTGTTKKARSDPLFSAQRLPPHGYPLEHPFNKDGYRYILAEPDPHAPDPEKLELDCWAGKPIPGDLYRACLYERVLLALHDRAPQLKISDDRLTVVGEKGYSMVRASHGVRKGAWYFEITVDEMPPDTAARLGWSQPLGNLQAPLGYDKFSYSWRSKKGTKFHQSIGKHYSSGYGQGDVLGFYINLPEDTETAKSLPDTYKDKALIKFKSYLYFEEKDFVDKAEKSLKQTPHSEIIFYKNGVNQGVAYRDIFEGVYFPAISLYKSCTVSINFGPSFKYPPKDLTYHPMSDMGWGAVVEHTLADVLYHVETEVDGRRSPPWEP

Experiments:
[1] = target: His-tagged mouse Sox2 (mouse) (UniProt P48432); assay: pull-down; 4 μg His-Sox2 on Ni-NTA resin, pre-incubated with 1% BSA, 400 ng purified F-Ash2l or F-Wdr5 added, 4°C overnight; 50 mM Tris pH 7.4, 300 mM NaCl, 10% glycerol, 0.1% NP40, 30 mM imidazole; anti-FLAG western blot; both purified
[2] = target: FLAG-HA-tagged Sox2 (1–123) (mouse) (UniProt P48432); assay: co-IP; 293T cells transiently transfected with FLAG-HA-tagged Sox2 truncation mutants; anti-FLAG M2 resin, 4°C overnight, BC150 (150 mM KCl), 0.05% NP40; western blot of endogenous subunits
[3] = target: FLAG-HA-tagged mouse Oct4 (stably expressed in Flp-In T-REx-293 cells) (mouse) (UniProt P20263); assay: co-IP; Flp-In T-REx-293 cells stably expressing one FLAG-HA-tagged mouse factor, doxycycline 48 h; anti-FLAG M2 resin, 4°C overnight, BC150 (150 mM KCl), 0.05% NP40; western blot of endogenous subunits
[4] = target: FLAG-HA-tagged mouse Sox2 (stably expressed in Flp-In T-REx-293 cells) (mouse) (UniProt P48432); assay: as above
[5] = target: FLAG-HA-tagged mouse Klf4 (stably expressed in Flp-In T-REx-293 cells) (mouse) (UniProt Q60793); assay: as above
[6] = target: FLAG-HA-tagged mouse Sox2 (lentiviral, expressed in MEFs) (mouse) (UniProt P48432); assay: co-IP; MEFs infected with lentivirus for one FLAG-HA-tagged reprogramming factor, doxycycline 48 h; anti-FLAG M2 resin, 4°C overnight, BC150 (150 mM KCl), 0.05% NP40; western blot of endogenous subunits
[7] = target: FLAG-HA-tagged mouse Myc (lentiviral, expressed in MEFs) (mouse) (UniProt P01108); assay: as above

Substance: FLAG-tagged Ash2l (from UniProt Q9UBL3 1-628)
- binding [1]: binds

Substance: endogenous Ash2l (293 and 293T cells) (from UniProt Q9UBL3 1-628)
- binding [2]: binds
- binding [3]: binds
- binding [4]: binds
- binding [5]: binds

Substance: endogenous Ash2l (MEFs) (from UniProt Q91X20 1-623)
- binding [6]: binds
- binding [7]: binds
